Experimental data reported in PubChem BioAssay AID652054 (National Center for Advancing Translational Sciences (NCATS), 2013).
Screen size: about 360,000 compounds; about 9,100 (2.5%) were called active. Inconclusive results, whose numbers are uncertain, are shown with a selection of clear calls. No stated cut-off is given here; in the data, active means max response below about -50%; inconclusive means no clear call, values can overlap the other calls; inactive means above that.

Amino acid sequences for entries named in this document (tags omitted).
UniProt P35462, whole entry, looked up: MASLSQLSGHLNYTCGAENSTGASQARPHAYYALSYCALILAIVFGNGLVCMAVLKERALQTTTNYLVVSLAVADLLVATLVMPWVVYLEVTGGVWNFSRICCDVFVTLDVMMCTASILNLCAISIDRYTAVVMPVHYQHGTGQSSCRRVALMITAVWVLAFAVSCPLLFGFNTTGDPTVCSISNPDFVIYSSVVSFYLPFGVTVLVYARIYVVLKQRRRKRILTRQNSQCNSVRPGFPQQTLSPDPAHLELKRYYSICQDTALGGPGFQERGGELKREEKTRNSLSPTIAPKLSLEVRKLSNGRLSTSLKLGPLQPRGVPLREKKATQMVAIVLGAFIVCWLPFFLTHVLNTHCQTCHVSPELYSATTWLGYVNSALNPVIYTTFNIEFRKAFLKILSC

What follows are compounds tested against D(3) dopamine receptor (Homo sapiens) (UniProt P35462) (assay: qHTS of D3 Dopamine Receptor Antagonist: qHTS). Conditions: D3R cells, DiscoveRx beta-arrestin luminescence, antagonist mode; hits give low values.
Procedure, shortened: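 Cells expressing the human receptor were seeded at 1500 cells/well, incubated overnight at 37 degrees C in 5% CO2, then exposed to library compounds with dopamine controls for 90 minutes at 37 degrees C before luminescent detection.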
On the % scale 0 is the no-effect control and ±100 the full control effect.

SMILES | max response, negative = inhibition
O=C(c1cccc(Oc2c(Cl)cccc2[N+](=O)[O-])c1)N1CCOCC1 | inconclusive: -31.5%
Cc1cccc(N2CCN(Cc3nc(-c4ccc(F)cc4F)oc3C)CC2)n1 | active: -85.6%
O=C(NCC1OCCc2ccccc21)c1ccc(NC(=O)c2ccc(Cl)cc2)cc1 (stereo not drawn) | inconclusive: -35.7%
CC(=O)N1CCOc2ccc(S(=O)(=O)NC[C@H]3O[C@@H](n4ccc(=O)[nH]c4=O)[C@H](O)[C@@H]3O)cc21 | inconclusive: -30.3%
Cc1ccc2nc(C(C)(C)C)c(Cc3cccc(F)c3)n2c1 | inconclusive: -35.5%
COc1ccc(CCCNC(=O)C2(C)Cc3c(-c4ccc(NC(C)=O)cc4)ccnc3O2)cc1 (stereo not drawn) | active: -62.3%
C[C@H](CO)N1C[C@H](C)[C@@H](CN(C)C(=O)Nc2ccccc2)Oc2c(NS(=O)(=O)c3cn(C)cn3)cccc2C1=O | inconclusive: -30.6%
COc1ccc(OC)c(N)c1 | inconclusive: -45.3%
Cc1cc(C)c(S(=O)(=O)c2ccccc2)c(OC(=O)c2c(Cl)cc(Cl)cc2Cl)n1 | inconclusive: -41.8%
Cc1ccc(-n2ncc3c(=O)n(CC(=O)N4CCCc5ccccc54)cnc32)cc1C | inactive: 49%
CCNC(=O)C1CCCN(Cc2ccc(OCc3ccccc3)cc2)CC1 (stereo not drawn) | inconclusive: -34.1%
O=C(C(=O)N1CCN(c2ccc(F)cc2)CC1)c1cn(CC(=O)N2CCOCC2)c2ccccc12 | inconclusive: -33.5%
Clc1ccc(SCCn2cncn2)cc1 | inconclusive: -41.3%
C/C(=N\O)c1ccc2c3ccccc3n(C)c2c1 | inconclusive: -49.9%
O=C(CN1CCN(Cc2ccccc2)CC1)Nc1cccc(Cl)c1Cl | inactive: 13.4%
COc1ccc(SCCN2CC[C@@H](O)CCC2=O)cc1 | inactive: -9.13%
COc1cc(Cl)ccc1OCc1cc(C(=O)N(C)CCc2cnn(C)c2)no1 | inactive: -9.87%
CCc1ccc(N(C(=O)c2ccco2)C(C(=O)NC2CCCC2)c2ccco2)cc1 (stereo not drawn) | inconclusive: -33.9%
Clc1ncnc2scc(C3COc4ccccc4O3)c12 (stereo not drawn) | inconclusive: -34.6%
COc1ccc2cc(C(=O)C3CCCN(C(=O)c4cncs4)C3)ccc2c1 (stereo not drawn) | inconclusive: -34.4%
S=C(N/N=C/c1ccccc1Cl)Nc1ccccc1 | active: -63.6%
CCN1C(=O)[C@H]2[C@@H](c3ccc(C)cc3)N3C(=O)N(c4ccc(C)cc4)C(=O)[C@@]3(CC)[C@H]2C1=O | inconclusive: -34.5%
C/C(=N\NC(=O)c1ccc(F)cc1)c1ccc(NC(=O)Cc2ccccc2)cc1 | inconclusive: -38.4%

Copied from the list:
max response, negative = inhibition with Cc1ccc2nc(C(C)(C)C)c(Cc3cccc(F)c3)n2c1 reads inconclusive: -35.5%
max response, negative = inhibition with CCc1ccc(N(C(=O)c2ccco2)C(C(=O)NC2CCCC2)c2ccco2)cc1 (stereo not drawn) reads inconclusive: -33.9%
